About 110 (0.058%) of roughly 190,000 compounds were called active. The inconclusive results got no clear call from the source; some entries with a clear call stand among them for comparison.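 The calls were made as follows: active = fluorescent GTP binding to Rab7 beads changed by at least 20 points from the 100% baseline, either direction, mostly lower; inconclusive = compound itself probably fluorescent, or too few beads counted; inactive = the rest.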 Square brackets hold non-standard residues; d marks the D form. Peptide text beside a SMILES is read from it. * marks the point of attachment. ξ: configuration not given here. Boc = CC(C)(C)OC(=O)*; NHBn = c1ccc(CN*)cc1; ξV = CC(C)C(N)C(=O)O
Test system: Rab7 GTPase wild type (dog), Bodipy-FL-GTP binding
Test: modulators of GTP binding to Rab7, primary screen, biochemical, wildtype, multiplex bead flow cytometry (AID 758);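 also: median green fluorescence of bound Bodipy-FL-GTP per Rab7 bead population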
Conditions: GST-Rab7 beads, fluorescent GTP binding, at 10 µM, actives lie on both sides, untreated = 100%, excess cold GTP = 0%

| Structure (SMILES) | GTP binding activity (percent of control) |
| --- | --- |
| CCc1ccc(OCCCC(=O)O)c(Br)c1 | inconclusive: 108% |
| COc1cc(C(=O)NC(=S)Nc2ccc3c(c2)C(=O)N(C)C3=O)cc(OC)c1OC | inactive: 94% |
| COc1cc(C(=O)Nc2cc(C)ccn2)cc(OC)c1OC | inconclusive: 102% |
| Cc1ccc(CNC(=O)c2ccccc2N)cc1 | inconclusive: 102% |
| CO/N=C/c1ccc(N2CCCC2)c([N+](=O)[O-])c1 | inconclusive: 85% |
| O=C(CC(C(=O)O)c1c[nH]c2ccccc12)c1ccccc1 (stereo not given) | inconclusive: 95% |
| Cn1cc(/C=C2\SC(=S)N(NC(=O)c3ccccc3Cl)C2=O)c2ccccc21 | inconclusive: 93% |
| Cc1ccc(NC(=O)C(=O)c2c(-c3ccccc3)cc3ccccn23)cc1S(=O)(=O)N1CCOCC1 | inconclusive: 88% |
| C=C(C)c1cccc(C(C)(C)NC(=O)N2CCC(C(N)=O)CC2)c1 | inactive: 94% |
| CCn1cc(C(=O)OCC(=O)c2cc(C)n(-c3ccc(OC(F)F)cc3)c2C)c(=O)c2ccc(C)nc21 | inactive: 92% |
| Cc1cccc(OCC(=O)OC2CCN(C)CC2)c1 | inconclusive: 93% |
| Clc1ccc(-c2csc(N3CCN(c4ccccc4)CC3)n2)cc1 | inconclusive: 88% |
| O=C(O)CSC(NC(=O)c1cccnc1)(C(F)(F)F)C(F)(F)F | inconclusive: 101% |
| CCN(CC(=O)Nc1cccc(C(C)=O)c1)S(=O)(=O)c1ccccc1 | inactive: 97% |
| Cn1cnnc1SCC(=O)Nc1nc(-c2ccc(F)cc2)cs1 | inconclusive: 89% |
| S=C(N/N=C/c1ccc2ncccc2c1)Nc1ccccc1 | inconclusive: 93% |
| CCC/C=N/NC(=O)c1cccc(Br)c1 | inactive: 103% |
| COc1ccc(C(=O)CN2CCN(c3ccc(F)cc3)CC2)cc1OC | inconclusive: 108% |
| CC(=O)C1=C(C)NC2(O)c3ccccc3C(=O)C12O (stereo not given) | inconclusive: 93% |
| O=C(Cn1nnc2ccccc21)c1cccc([N+](=O)[O-])c1 | inconclusive: 104% |
| COc1ccccc1CNc1n[nH]c(NCc2ccccc2OC)n1 | inconclusive: 100% |
| CS(=O)(=O)N1CCC(C(=O)Nc2cccc(Cl)c2)CC1 | inconclusive: 98% |
| CC(O)c1cccc(NC(=O)Cc2cccc3ccccc23)c1 (stereo not given) | inactive: 93% |
| O=C(/C=C/c1ccc(Cl)cc1)NC(=S)Nc1ccc(NC(=O)c2ccco2)cc1 | inactive: 96% |

| Structure (SMILES) | GTP binding activity (percent of control) |
| --- | --- |
| CN(C)/C=C1\C(=O)N(c2ccc(Cl)cc2)CS1(=O)=O | inconclusive: 95% |
| O=S(=O)(Nc1nc2ccccc2[nH]1)c1ccc2ccccc2c1 | inactive: 92% |
| COc1ccc(-n2cnc3ccccc32)cc1 | inconclusive: 106% |
| CCOC(=O)C1=NN(C(=O)COc2ccccc2)C(O)(c2ccc(Br)cc2)C1 (stereo not given) | inconclusive: 98% |
| Cc1ccc(S(=O)(=O)/N=C2/C=C(Sc3ncn[nH]3)C(=O)c3ccccc32)c(C)c1 | inconclusive: 93% |
| CCOc1ncccc1C(=O)Nc1ccc(OC)c(S(=O)(=O)N2CCCCC2)c1 | inconclusive: 93% |
| Cc1ccc(C(=O)C(OC(=O)c2cnccn2)c2ccccc2)cc1C (stereo not given) | inconclusive: 101% |
| O=c1c2[nH]c3ccccc3c2ncn1Cc1cccnc1 | inconclusive: 104% |
| O=C(O)c1c2c(nc3ccc(S(=O)(=O)N4CCC(C(=O)NC5CCCC5)CC4)cc13)CCCCC2 | inconclusive: 95% |
| CC1(C)CC2(CC(c3ccccc3F)c3ccc(O)c(O)c3O2)NC(=S)N1 (stereo not given) | inactive: 102% |
| CC(C)NS(=O)(=O)c1ccc(NC(=O)NC2CCCCC2)cc1 | inactive: 99% |
| Cc1nnc(SCc2cccc(CSc3nnc(C)s3)c2)s1 | inconclusive: 99% |
| O=C(COn1nnc2ccc(Cl)cc21)NCc1ccccc1 | inconclusive: 27% |
| O=S(=O)(c1cccc(C(F)(F)F)c1)N1CCC(c2cc(-c3cccc4ccccc34)n[nH]2)CC1 | inconclusive: 97% |
| O=C1/C(=C/c2ccc(N3CCOCC3)o2)SC(=Nc2ccccc2)N1CCc1c[nH]c2ccccc12 | inconclusive: 155% |
| CCCc1nc2c(nnn2Cc2ccccc2Cl)c(=O)[nH]1 | inactive: 99% |
| CCCCNC(=O)/C(=C/c1ccccc1)NC(C)=O | inconclusive: 100% |
| CCCCCCCC(=O)N/N=C(\C)c1ccc(O)cc1O | inconclusive: 100% |
| Cc1nnc(N2CCOCC2)c2nn(-c3cccc(Cl)c3)c(C)c12 | inconclusive: 184% |
| O=C(COc1ccccc1[N+](=O)[O-])NCCC1=CCCCC1 | inactive: 102% |
| CC(C)OCCCNC(=O)CNC(=O)c1ccc(Cl)c(Cl)c1 | inactive: 103% |
| CC(=O)OCC1=C(C(=O)O)N2C(=O)C(NC(=O)c3ccc(COc4cccc(Cl)c4Cl)o3)C2SC1 (stereo not given) | inconclusive: 92% |
| Cc1nc2cccc(C)n2c(=O)c1Cl | inactive: 105% |
| Cn1c(NCc2c[nH]c3ccccc23)nc2ccccc21 | inconclusive: 93% |

| Structure (SMILES) | GTP binding activity (percent of control) |
| --- | --- |
| COC(=O)c1ccc(CSc2ccc3nnc(-c4ccccn4)n3n2)o1 | inconclusive: 91% |
| COc1ccc(-n2nc3ccc(NS(C)(=O)=O)cc3n2)cc1Cl | inconclusive: 91% |
| Cn1nc(-c2ccccc2)c(CN2CCN(c3ncccn3)CC2)c1Cl | inactive: 96% |
| CC(=O)c1cccc(N(C(=O)Cn2nnc3ccccc32)C(C(=O)NCC2CCCO2)c2ccc(N3CCOCC3)cc2)c1 (stereo not given) | inactive: 105% |
| O=C(Nc1ccc2nc3ccccc3nc2c1)c1ccccc1 | inconclusive: 92% |
| CCOP(=O)(OCC)C(Nc1ccccn1)c1ccccc1 (stereo not given) | inconclusive: 98% |
| O=C(O)c1cccc(Nc2cc(Cl)c3nonc3c2[N+](=O)[O-])c1 | inconclusive: 90% |
| O=C1ON=C(c2cccc([N+](=O)[O-])c2)/C1=C/c1ccc(O)cc1 | inconclusive: 94% |
| Cc1cccc(C(=O)Nc2cc(OCc3cccc(F)c3)c(Cl)cc2Cl)c1 | inactive: 94% |
| CCc1cc(=O)[nH]c(SCCC(F)=C(F)F)n1 | inactive: 105% |
| C=CCn1c(SCC(=O)NC2CCCCC2)nnc1C1CCCCC1 | inconclusive: 101% |
| CC(C)CN(CC(C)C)C(=S)Nc1ccc(Cl)cc1 | inactive: 99% |
| Cc1noc(C)c1COc1cccc(C(=O)OCCOc2ccc(F)cc2)c1 | inconclusive: 94% |
| CC1=C(C(=O)N2CCOCC2)C(c2ccccc2F)C2=C(CC(C)(C)CC2=O)N1 (stereo not given) | inconclusive: 108% |
| O=C(O)CCC(=O)c1cccc2ccccc12 | inconclusive: 102% |
| CCOC(=O)c1c(NC(=O)C(=O)N/N=C/c2ccccc2O)sc2c1CCCCC2 | inactive: 102% |
| O=C(CNC(=S)N(CCCN1CCOCC1)Cc1cccs1)NCCN1CCOCC1 | inconclusive: 100% |
| O=C(O)CCC(=O)c1c[nH]c2ccccc12 | inconclusive: 111% |
| CCCOc1ccc(Cc2c(Cl)nc(SC)nc2NC)cc1 | inconclusive: 94% |
| Clc1ccc(-c2nnc3n2CCCS3)cc1 | inconclusive: 96% |
| C=CCn1nc(-c2ccccc2)c2c(C)onc2c1=O | inactive: 100% |
| COc1ccc(C)cc1NC(=O)c1ccoc1C | inconclusive: 102% |
| Cc1ccc(C(=O)Nc2onc(C)c2C#N)cc1 | inactive: 98% |
| Cc1ccc(/C=C/C(=O)NCc2cccs2)c(C)c1 | inconclusive: 93% |

Molecules above containing an aryl thioether with sulfur outside any ring, in the order listed:

| Structure (SMILES) | GTP binding activity (percent of control) |
| --- | --- |
| Cn1cnnc1SCC(=O)Nc1nc(-c2ccc(F)cc2)cs1 | inconclusive: 89% |
| Cc1ccc(S(=O)(=O)/N=C2/C=C(Sc3ncn[nH]3)C(=O)c3ccccc32)c(C)c1 | inconclusive: 93% |
| Cc1nnc(SCc2cccc(CSc3nnc(C)s3)c2)s1 | inconclusive: 99% |
| COC(=O)c1ccc(CSc2ccc3nnc(-c4ccccn4)n3n2)o1 | inconclusive: 91% |
| CCc1cc(=O)[nH]c(SCCC(F)=C(F)F)n1 | inactive: 105% |
| C=CCn1c(SCC(=O)NC2CCCCC2)nnc1C1CCCCC1 | inconclusive: 101% |
| CCCOc1ccc(Cc2c(Cl)nc(SC)nc2NC)cc1 | inconclusive: 94% |

(continued)

| Structure (SMILES) | GTP binding activity (percent of control) |
| --- | --- |
| O=C(O)/C=C/C(=O)Nc1cccnc1 | active: 20% |
| O=C(O)CC(C(=O)OC1CCCCC1)N1CCOCC1 (stereo not given) | inconclusive: 93% |
| CCOc1ccc2nc(SCC(=O)N3c4ccccc4Sc4ccccc43)c(C#N)cc2c1 | inactive: 102% |
| Clc1ccc(-c2nc(/C=N/N3CCOCC3)c3ccccn23)cc1 | inactive: 92% |
| OC(CNCCc1ccc(C(F)(F)F)cc1)COc1ccc2ccccc2c1 (stereo not given) | inconclusive: 88% |
| O=C(Cn1cnc2cc([N+](=O)[O-])ccc2c1=O)NCc1ccccc1 | inconclusive: 95% |
| CC(C)(C)c1nc2scc(-c3ccc(Br)cc3)c2c(=O)o1 | inconclusive: 91% |
| CC(C)C(NC(=O)CNC(=O)OC(C)(C)C)C(=O)NCc1ccccc1 (stereo not drawn) (Boc-Gly-[ξV]-NHBn) | inconclusive: 102% |
| C=CCNc1nc(NC(C)(C)CO)nc(OCC)n1 | inconclusive: 106% |
| CCOC(=O)c1sc(=S)n(C)c1NC(=O)c1ccccc1C | inactive: 100% |
| COC(=O)C(=O)/C=C(\O)c1ccc(C)cc1 | inconclusive: 93% |
| O=C(Nc1nnc(-c2ccco2)s1)C1CCCCC1 | inconclusive: 101% |
| CNC(=O)COC(=O)c1cc(F)c(F)cc1Cl | inconclusive: 100% |
| CCSc1nnc(Cc2cc(=O)[nH]c(=O)[nH]2)n1-c1ccc(F)cc1 | inconclusive: 106% |
| Cc1ccc(C2CC(=O)N(c3ccc(F)cc3)C3=C2C(=O)CCC3)cc1 (stereo not given) | inconclusive: 102% |
| COc1ccccc1N(C)S(=O)(=O)c1ccc(C(=O)Nc2nc(C)cs2)cc1 | inactive: 96% |
| Cc1ccccc1N(CC(=O)N/N=C/c1ccccc1Cl)C(=O)c1ccccc1 | inconclusive: 143% |
| COc1cc2nc(/C=C/c3ccc(N(C)C)cc3)sc2cc1SC | inconclusive: 170% |
| CCC(C)(C)c1ccc(OCCCC[n+]2ccccc2)c(C(C)(C)CC)c1 | inconclusive: 112% |
| Clc1ccccc1-c1ccc(/C=N/Nc2nncc(-c3ccccc3)n2)o1 | inactive: 97% |
| COCCOC(=O)c1c(C)oc2ccc(OC(=O)c3ccc4c(c3)OCO4)cc12 | active: 79% |
| COc1ccc(C(=O)C2CCCN(Cc3cccc4c3OCO4)C2)cc1OC (stereo not given) | inactive: 104% |
| Cc1nn(CCc2n[nH]c(=S)n2C)c(C)c1Br | inconclusive: 101% |

From PubChem BioAssay AID758 (NMMLSC, 2007)
